Test results taken from the supplement of paper PMC11006884.
The entries are a selection whose mix differs from that of the whole data set. The data scatter; read single values as rough.

Protein sequences, listed by entry. Tags and fused reporters are not part of them. Lines headed by an entry give the natural chain unless they say otherwise; changes in a name come on top.
UniProt Q9Y3C8: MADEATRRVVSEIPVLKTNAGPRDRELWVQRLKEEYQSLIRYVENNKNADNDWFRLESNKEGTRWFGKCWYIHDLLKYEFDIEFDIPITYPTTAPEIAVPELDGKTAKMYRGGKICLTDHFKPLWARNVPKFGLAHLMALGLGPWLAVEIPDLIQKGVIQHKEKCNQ
UniProt Q9Y2F5: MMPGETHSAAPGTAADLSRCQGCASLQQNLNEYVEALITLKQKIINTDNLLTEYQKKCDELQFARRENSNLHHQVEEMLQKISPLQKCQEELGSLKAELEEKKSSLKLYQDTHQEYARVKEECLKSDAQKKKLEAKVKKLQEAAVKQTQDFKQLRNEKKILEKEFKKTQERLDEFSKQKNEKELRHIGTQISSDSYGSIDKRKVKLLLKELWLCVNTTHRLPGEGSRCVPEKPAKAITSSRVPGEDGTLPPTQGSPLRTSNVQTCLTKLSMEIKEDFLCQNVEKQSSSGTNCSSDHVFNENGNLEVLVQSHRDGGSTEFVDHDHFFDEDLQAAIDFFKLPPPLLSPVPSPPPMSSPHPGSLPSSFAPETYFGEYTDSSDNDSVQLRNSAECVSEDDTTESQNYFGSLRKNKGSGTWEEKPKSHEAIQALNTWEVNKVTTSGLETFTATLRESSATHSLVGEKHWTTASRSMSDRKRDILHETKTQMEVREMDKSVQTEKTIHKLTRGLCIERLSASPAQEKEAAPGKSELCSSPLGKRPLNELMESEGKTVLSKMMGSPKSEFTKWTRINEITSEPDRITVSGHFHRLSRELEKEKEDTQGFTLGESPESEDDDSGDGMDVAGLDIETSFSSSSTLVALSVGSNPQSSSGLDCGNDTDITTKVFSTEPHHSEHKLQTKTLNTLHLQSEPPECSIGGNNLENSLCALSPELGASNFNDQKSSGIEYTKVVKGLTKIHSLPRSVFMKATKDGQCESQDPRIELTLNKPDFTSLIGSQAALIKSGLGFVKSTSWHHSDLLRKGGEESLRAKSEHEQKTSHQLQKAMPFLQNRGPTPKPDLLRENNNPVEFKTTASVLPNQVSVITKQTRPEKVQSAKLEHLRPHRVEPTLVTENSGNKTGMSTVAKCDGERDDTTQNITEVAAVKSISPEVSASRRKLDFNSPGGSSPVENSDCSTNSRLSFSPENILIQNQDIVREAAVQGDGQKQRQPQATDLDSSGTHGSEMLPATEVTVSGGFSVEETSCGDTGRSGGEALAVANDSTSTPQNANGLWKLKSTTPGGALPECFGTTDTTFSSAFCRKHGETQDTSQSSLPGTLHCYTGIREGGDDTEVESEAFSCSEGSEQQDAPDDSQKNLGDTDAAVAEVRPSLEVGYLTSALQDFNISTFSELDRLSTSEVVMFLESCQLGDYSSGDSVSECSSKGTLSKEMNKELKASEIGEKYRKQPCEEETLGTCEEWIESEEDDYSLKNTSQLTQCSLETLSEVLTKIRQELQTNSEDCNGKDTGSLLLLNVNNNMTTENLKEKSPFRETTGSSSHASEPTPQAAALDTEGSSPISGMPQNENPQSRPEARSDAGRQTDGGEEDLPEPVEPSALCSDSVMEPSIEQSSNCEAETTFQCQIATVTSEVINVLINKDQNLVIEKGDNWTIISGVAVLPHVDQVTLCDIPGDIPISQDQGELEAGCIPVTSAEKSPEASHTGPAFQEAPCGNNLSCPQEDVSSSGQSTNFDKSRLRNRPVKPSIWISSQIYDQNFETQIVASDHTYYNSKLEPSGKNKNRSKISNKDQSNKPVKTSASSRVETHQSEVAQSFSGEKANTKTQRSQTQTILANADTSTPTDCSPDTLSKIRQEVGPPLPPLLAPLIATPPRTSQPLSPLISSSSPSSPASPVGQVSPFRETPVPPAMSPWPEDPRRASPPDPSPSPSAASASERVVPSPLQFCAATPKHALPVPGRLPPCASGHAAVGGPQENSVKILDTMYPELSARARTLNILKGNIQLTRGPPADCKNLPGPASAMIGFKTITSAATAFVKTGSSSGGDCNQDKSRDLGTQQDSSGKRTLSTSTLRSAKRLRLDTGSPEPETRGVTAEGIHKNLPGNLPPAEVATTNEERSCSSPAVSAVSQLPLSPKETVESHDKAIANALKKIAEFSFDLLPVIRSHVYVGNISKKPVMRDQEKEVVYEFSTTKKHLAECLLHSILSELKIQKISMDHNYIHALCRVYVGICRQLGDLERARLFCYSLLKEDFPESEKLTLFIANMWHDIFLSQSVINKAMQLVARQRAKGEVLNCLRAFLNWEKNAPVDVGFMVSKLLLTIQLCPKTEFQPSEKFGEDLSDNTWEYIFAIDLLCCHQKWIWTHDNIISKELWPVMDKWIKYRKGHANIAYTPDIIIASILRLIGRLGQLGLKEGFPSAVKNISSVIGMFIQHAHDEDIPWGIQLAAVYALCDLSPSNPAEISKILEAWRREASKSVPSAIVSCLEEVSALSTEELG
UniProt Q9Y305: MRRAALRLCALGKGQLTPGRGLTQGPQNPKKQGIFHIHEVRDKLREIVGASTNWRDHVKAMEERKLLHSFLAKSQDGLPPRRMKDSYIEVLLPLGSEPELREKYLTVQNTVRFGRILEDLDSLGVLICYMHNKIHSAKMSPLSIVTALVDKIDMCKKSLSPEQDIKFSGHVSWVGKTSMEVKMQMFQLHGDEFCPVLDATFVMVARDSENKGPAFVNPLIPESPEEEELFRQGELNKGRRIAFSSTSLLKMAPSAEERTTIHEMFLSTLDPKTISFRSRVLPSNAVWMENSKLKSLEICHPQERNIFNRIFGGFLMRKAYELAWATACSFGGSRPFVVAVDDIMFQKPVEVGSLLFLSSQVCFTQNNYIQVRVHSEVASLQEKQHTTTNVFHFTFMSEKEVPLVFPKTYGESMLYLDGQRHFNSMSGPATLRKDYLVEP
UniProt Q9UPN4: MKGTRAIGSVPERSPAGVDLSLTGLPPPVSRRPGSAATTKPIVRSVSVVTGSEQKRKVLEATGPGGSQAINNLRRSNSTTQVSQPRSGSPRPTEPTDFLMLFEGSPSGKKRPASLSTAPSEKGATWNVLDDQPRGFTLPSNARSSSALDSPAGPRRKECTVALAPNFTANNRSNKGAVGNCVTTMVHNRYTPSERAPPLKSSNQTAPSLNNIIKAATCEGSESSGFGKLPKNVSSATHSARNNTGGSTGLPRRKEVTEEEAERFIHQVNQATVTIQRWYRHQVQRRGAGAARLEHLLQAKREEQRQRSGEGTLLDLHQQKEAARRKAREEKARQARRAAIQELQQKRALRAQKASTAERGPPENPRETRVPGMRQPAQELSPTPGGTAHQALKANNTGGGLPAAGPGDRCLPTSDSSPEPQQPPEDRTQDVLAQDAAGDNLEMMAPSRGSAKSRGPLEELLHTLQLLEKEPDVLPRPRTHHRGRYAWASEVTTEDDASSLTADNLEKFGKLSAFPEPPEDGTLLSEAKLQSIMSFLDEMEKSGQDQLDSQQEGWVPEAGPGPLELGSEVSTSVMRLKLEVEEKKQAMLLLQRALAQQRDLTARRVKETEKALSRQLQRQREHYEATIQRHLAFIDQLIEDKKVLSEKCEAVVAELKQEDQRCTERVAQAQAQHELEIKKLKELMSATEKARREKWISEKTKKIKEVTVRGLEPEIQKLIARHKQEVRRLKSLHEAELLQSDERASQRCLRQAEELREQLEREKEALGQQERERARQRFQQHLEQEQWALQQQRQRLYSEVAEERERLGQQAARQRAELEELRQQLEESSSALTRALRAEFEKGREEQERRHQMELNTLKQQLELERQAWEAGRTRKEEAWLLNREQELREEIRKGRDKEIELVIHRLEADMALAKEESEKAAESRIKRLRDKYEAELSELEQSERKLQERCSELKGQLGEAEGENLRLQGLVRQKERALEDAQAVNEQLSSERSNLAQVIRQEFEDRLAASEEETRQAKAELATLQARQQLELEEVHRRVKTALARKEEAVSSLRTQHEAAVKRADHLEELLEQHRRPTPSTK
UniProt Q9UNE7: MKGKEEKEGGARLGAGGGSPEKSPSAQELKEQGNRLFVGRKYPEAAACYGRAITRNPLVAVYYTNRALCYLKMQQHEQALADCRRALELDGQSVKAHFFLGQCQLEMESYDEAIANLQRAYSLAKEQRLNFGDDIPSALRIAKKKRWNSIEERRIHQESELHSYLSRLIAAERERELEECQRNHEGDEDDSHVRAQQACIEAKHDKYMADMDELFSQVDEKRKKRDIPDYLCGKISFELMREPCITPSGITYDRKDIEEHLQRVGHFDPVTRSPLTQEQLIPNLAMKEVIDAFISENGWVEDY
UniProt Q9Y3S1: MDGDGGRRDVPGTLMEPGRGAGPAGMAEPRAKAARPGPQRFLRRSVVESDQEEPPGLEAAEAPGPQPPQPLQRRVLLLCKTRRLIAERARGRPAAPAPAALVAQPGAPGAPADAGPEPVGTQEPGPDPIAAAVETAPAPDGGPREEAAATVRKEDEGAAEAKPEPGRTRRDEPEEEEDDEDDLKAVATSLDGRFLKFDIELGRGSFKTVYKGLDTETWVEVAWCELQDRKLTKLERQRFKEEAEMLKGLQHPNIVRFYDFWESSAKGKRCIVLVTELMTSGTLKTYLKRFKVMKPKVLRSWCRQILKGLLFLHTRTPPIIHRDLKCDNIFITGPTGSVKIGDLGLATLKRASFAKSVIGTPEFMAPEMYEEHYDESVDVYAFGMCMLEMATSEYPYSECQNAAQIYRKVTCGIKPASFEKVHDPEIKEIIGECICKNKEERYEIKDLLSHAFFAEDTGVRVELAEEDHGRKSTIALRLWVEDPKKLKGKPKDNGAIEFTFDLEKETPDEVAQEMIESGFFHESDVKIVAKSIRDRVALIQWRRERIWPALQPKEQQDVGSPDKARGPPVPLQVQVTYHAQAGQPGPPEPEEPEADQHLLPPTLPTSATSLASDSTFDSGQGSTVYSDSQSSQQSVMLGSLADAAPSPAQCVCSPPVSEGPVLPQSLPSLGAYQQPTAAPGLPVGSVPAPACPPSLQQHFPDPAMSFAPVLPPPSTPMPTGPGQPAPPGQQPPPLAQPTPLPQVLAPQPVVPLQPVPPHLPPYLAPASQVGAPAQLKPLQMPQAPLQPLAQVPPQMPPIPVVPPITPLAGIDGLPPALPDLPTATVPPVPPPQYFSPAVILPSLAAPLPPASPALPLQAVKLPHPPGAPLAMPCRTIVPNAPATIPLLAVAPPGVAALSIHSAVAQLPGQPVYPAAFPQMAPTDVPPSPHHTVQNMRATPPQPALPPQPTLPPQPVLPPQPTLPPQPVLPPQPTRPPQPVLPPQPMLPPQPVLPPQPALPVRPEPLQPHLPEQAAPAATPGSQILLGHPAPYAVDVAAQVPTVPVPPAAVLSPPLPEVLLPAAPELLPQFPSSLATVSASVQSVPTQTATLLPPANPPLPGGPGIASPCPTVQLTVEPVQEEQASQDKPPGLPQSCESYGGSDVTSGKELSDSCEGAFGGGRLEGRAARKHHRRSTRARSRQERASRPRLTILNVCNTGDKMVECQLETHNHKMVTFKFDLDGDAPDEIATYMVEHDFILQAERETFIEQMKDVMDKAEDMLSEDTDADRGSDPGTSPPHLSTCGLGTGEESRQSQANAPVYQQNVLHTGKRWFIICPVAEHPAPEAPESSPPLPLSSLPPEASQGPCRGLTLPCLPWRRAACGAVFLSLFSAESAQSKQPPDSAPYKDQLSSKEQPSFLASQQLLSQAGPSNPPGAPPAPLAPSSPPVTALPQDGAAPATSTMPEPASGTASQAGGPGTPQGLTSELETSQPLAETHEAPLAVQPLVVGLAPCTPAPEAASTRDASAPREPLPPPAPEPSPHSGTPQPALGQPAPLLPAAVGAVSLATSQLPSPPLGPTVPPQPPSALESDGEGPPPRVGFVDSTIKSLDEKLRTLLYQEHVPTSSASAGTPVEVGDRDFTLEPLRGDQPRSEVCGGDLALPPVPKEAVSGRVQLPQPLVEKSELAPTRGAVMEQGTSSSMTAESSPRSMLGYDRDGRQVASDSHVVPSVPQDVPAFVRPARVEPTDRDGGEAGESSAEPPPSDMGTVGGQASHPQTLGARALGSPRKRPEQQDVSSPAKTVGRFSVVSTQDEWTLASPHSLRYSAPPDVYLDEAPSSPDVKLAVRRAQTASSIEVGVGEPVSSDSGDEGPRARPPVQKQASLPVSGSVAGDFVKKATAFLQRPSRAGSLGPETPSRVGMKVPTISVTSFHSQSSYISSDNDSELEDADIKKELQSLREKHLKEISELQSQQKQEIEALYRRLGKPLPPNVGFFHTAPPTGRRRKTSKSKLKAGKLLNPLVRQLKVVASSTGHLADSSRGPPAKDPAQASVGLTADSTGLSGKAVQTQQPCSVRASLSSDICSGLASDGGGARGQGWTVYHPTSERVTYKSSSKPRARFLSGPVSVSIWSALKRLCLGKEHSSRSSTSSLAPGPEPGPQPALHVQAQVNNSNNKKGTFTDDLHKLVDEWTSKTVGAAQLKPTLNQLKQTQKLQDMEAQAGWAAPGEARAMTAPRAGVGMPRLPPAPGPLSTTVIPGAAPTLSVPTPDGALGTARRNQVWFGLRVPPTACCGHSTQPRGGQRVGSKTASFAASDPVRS

Compound: COC(=O)/C=C/c1ccccc1 [methyl cinnamate]
Test: log2 ratio of iodoacetamide-alkyne labeling of the cysteine site, DMSO over compound (competition); higher = stronger covalent engagement of the cysteine by the compound, active = 1 or more
Details: 500 µM; treatment time 1 h; system: HEK293T cell lysate
Summary of the method: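 HEK293T lysate (2 mg/mL) was incubated with electrophile (500 µM) or vehicle for 1 h at ambient temperature and then with iodoacetamide alkyne for 1 h. Labelled proteins were clicked to sCIP-TMT reagents, pooled, digested, enriched on streptavidin and measured by Orbitrap Eclipse LC-MS/MS with FAIMS, with FragPipe quantification. The per-cysteine log2 competition ratio is mean control-channel reporter intensity over mean compound-channel reporter intensity. Across three replicates with duplicate channels, cysteines quantified in only one replicate were excluded.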

log2 ratio of iodoacetamide-alkyne labeling, inactive:
UniProt Q9UHD8_C248 0.373
GTF3C4 C713 (UniProt Q9UKN8) 0.112
ANAPC5 C86 (UniProt Q9UJX4) 0.147
DLGAP4 C736 (UniProt Q9Y2H0) 0.308
UniProt Q9Y2K2_C223 0.378
HECTD1 C2224 (UniProt Q9ULT8) 0.278
UFC1 C116 (UniProt Q9Y3C8) 0.0511
MRPS16 C26 (UniProt Q9Y3D3) 0.0942
NISCH C436 (UniProt Q9Y2I1) -0.14
ICE1 C1616 (UniProt Q9Y2F5) 0.331
LIMCH1 C669 (UniProt Q9UPQ0) 0.0959
DCTN4 C41 (UniProt Q9UJW0) 0.0768
MYO6 C1102 (UniProt Q9UM54) 0.26
MTMR6 C569 (UniProt Q9Y217) 0.321
EIF3L C417 (UniProt Q9Y262) 0.192
SRRM2 C2116 (UniProt Q9UQ35) 0.0494
SRRM2 C2130 (UniProt Q9UQ35) 0.223
STOML2 C167 (UniProt Q9UJZ1) -0.199
NUDC C188 (UniProt Q9Y266) -0.15
UniProt Q9UKA8_C239 0.289
ACOT9 C299 (UniProt Q9Y305) 0.0547
UniProt Q9UPN4_C159 0.256
MBD1 C525 (UniProt Q9UIS9) 0.29
SNX6 C348 (UniProt Q9UNH7) 0.185
BAZ2A C1480 (UniProt Q9UIF9) 0.0318
CORO1C C456 (UniProt Q9ULV4) 0.29
STUB1 C48 (UniProt Q9UNE7) 0.134
GSTK1 C176 (UniProt Q9Y2Q3) 0.369
HECTD1 C436 (UniProt Q9ULT8) 0.0927
STUB1 C232 (UniProt Q9UNE7) -0.0183
WNK2 C2062 (UniProt Q9Y3S1) 0.312
MYO6 C691 (UniProt Q9UM54) -0.327
UniProt Q9UHD8_C531 0.11
NUP50 C416 (UniProt Q9UKX7) -0.119
SAMHD1 C80 (UniProt Q9Y3Z3) 0.159
ZMYND8 C1062 (UniProt Q9ULU4) 0.143
KIDINS220 C412 (UniProt Q9ULH0) 0.0653

A stretch of the results above:
log2 ratio of iodoacetamide-alkyne labeling, inactive:
CORO1C C456 (UniProt Q9ULV4) 0.29
STUB1 C48 (UniProt Q9UNE7) 0.134
